Assay results as given in the supplement of paper PMC10849652.
The other results are listed elsewhere or left out.

By UniProt entry, the sequences of proteins in these tests, tags left out. Where a name states a change or a piece, a line headed by the entry shows the natural chain unless it says otherwise.
UniProt Q9H3C7, whole entry, looked up: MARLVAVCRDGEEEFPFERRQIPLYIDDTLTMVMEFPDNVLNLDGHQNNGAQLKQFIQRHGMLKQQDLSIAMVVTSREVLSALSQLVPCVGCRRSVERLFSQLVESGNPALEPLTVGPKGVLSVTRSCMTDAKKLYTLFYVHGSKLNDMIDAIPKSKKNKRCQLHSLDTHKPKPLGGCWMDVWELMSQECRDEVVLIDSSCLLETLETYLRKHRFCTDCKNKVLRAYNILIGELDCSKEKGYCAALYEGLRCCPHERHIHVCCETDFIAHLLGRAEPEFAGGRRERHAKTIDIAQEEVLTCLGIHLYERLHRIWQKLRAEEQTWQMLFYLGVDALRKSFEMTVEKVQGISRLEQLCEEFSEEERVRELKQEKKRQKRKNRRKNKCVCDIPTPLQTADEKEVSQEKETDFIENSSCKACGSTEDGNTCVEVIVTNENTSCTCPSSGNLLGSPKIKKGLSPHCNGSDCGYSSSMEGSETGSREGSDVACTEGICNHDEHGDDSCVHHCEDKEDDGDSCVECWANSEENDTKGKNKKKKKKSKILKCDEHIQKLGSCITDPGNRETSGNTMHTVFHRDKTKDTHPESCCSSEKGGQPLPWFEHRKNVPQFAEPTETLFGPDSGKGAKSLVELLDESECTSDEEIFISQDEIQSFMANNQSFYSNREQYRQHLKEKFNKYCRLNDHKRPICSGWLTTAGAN
UniProt Q96C23: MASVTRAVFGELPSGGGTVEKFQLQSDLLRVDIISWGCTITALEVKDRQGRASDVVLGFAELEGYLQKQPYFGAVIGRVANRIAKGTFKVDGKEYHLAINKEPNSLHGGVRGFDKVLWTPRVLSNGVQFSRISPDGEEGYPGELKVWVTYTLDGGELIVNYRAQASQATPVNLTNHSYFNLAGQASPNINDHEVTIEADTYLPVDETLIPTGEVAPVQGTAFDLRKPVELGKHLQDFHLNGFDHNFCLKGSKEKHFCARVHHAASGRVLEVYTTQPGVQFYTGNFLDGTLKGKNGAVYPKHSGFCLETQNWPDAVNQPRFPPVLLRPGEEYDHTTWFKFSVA
UniProt P04062: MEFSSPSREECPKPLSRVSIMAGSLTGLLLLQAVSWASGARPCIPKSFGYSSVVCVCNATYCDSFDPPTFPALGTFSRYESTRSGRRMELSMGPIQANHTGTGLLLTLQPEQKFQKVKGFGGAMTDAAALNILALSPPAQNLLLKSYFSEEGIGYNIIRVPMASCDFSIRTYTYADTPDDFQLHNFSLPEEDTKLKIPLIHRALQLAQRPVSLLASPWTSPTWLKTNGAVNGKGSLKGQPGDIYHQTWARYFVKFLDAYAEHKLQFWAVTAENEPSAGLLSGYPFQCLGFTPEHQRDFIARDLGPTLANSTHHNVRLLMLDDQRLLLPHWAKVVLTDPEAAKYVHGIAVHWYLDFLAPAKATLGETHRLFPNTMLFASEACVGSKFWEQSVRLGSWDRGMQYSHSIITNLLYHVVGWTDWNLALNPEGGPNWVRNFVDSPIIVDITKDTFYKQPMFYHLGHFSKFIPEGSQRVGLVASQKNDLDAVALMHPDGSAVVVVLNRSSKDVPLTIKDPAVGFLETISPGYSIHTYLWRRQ
UniProt Q9HCG7: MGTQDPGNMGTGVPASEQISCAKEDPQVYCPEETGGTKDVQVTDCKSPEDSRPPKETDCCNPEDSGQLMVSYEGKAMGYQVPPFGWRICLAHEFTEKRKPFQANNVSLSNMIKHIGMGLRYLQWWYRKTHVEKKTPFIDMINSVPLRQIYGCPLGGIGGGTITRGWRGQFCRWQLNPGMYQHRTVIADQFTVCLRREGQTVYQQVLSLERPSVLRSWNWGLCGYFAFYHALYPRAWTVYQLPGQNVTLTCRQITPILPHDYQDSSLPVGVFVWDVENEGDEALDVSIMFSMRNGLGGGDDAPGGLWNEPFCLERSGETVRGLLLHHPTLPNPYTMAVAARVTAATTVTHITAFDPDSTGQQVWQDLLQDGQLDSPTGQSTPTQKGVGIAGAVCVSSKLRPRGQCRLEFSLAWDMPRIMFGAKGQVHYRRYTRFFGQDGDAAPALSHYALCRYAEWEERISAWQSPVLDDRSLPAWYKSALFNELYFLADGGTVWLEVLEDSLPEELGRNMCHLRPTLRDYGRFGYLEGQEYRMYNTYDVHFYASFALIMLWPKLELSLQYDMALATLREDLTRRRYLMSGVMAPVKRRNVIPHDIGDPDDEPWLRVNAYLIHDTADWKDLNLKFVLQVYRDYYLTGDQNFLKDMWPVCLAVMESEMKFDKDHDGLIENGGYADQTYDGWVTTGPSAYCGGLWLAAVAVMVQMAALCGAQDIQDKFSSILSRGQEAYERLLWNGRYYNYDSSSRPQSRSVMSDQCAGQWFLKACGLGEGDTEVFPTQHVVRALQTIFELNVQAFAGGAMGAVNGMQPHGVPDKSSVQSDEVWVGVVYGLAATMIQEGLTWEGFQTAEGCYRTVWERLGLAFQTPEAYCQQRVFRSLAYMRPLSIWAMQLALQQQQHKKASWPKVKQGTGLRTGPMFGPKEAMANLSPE
UniProt Q9NZC3: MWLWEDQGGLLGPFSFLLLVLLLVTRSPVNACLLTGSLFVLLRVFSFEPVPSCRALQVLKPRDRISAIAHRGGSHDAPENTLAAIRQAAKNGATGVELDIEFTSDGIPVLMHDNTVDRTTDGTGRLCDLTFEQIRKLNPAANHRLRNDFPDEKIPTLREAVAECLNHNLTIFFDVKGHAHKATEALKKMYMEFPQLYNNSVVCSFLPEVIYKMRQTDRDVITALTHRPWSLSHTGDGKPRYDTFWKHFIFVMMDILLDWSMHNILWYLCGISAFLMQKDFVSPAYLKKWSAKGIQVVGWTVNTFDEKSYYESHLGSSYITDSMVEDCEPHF
UniProt Q10472: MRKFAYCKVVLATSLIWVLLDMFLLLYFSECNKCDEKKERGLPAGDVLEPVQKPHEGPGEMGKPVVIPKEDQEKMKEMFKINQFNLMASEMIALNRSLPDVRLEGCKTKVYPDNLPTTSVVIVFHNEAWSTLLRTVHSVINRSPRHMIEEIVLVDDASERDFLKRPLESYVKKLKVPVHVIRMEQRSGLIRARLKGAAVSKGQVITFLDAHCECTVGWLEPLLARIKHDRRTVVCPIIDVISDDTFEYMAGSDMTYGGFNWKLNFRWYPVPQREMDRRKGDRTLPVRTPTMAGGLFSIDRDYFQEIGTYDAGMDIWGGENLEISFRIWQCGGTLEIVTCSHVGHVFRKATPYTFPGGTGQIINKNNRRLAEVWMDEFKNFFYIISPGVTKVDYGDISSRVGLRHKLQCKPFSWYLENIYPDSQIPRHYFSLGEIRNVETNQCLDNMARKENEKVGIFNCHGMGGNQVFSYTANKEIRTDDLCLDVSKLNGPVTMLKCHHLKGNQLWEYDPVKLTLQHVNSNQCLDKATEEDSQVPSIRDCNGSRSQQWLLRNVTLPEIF
UniProt Q96DB9: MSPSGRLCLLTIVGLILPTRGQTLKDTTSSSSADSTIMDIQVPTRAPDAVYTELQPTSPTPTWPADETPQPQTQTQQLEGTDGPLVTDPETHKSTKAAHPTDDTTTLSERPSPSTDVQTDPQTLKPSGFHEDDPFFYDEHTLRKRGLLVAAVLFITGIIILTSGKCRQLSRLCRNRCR
UniProt Q10471: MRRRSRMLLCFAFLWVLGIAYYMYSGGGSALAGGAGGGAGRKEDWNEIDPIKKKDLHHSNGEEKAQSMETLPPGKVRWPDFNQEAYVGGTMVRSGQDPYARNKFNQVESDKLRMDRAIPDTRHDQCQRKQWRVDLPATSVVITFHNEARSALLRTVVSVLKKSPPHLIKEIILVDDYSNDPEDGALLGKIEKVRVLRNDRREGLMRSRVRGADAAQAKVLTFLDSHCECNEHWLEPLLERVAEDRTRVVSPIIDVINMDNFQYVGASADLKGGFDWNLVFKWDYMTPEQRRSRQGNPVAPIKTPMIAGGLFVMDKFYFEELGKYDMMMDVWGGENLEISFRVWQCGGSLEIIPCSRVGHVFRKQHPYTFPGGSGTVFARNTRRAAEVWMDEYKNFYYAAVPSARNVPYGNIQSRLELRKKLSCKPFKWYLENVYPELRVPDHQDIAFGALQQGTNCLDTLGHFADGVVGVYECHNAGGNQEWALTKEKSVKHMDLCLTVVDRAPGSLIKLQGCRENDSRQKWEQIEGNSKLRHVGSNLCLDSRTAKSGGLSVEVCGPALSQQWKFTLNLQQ
UniProt Q96NB1: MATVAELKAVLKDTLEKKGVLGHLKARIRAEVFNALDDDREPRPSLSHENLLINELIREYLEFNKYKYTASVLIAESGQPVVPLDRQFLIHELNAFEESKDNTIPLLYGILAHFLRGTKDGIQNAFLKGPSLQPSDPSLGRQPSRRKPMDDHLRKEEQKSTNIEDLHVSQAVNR
UniProt P85037: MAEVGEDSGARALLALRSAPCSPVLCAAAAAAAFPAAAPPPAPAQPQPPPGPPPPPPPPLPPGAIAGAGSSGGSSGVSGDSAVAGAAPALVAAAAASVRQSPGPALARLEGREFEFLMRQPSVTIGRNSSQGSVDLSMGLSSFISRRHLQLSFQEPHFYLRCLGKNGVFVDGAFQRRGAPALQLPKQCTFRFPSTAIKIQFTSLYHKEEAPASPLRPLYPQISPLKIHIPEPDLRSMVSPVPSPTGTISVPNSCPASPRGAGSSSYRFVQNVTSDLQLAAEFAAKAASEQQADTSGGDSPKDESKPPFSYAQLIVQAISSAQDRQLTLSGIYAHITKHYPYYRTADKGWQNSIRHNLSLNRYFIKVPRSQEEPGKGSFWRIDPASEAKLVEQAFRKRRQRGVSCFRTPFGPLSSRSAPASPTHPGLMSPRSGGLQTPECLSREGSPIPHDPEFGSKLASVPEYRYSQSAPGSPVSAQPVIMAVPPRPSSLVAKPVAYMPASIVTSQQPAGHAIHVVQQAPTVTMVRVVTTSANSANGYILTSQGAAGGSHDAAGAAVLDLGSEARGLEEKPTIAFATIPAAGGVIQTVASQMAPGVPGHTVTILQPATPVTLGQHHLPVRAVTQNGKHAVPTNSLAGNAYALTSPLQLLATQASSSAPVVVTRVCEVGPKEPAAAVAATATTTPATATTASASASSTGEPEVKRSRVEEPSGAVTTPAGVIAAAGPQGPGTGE
UniProt P15407: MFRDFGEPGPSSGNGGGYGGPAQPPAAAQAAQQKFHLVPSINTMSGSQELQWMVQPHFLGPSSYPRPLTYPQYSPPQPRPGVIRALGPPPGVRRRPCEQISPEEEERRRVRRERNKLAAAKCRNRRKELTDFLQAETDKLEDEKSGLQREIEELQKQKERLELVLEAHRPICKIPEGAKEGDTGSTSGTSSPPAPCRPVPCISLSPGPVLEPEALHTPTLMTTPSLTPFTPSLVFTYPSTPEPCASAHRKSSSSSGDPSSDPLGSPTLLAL
UniProt Q8IXK2: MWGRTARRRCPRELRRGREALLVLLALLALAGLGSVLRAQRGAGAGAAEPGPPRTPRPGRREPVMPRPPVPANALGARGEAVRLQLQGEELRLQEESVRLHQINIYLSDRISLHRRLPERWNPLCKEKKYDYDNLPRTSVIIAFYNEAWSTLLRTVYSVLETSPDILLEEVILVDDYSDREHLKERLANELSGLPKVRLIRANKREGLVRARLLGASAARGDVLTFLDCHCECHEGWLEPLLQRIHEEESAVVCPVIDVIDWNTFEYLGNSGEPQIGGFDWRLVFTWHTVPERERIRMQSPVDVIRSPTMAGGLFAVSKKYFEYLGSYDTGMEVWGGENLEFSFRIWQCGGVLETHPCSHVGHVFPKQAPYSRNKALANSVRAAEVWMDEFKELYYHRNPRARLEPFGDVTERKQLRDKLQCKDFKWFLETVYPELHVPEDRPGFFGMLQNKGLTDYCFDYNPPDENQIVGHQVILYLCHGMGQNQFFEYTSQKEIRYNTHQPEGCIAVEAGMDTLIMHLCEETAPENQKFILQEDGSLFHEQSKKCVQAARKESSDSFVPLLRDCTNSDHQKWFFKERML
UniProt Q14376: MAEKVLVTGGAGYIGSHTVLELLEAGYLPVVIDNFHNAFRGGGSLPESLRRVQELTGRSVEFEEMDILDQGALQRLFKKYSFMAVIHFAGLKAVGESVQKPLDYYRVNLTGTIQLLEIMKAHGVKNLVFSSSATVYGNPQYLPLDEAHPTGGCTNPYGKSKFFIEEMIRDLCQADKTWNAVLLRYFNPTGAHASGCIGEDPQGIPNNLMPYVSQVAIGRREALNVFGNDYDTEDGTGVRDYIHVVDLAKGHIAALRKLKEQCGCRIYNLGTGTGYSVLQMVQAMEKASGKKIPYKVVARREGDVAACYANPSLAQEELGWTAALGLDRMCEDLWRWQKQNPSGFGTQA
UniProt P48507: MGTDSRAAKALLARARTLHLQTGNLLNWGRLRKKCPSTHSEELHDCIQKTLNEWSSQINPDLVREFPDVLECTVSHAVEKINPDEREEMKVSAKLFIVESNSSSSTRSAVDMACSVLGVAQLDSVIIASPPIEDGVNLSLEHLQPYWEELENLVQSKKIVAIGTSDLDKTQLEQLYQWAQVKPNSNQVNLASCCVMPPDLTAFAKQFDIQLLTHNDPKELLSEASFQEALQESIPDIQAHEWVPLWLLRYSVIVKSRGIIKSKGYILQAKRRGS

Tests used:
Test in all cases: log2 fold change, soluble protein after heating vs DMSO (PISA); higher = thermal stabilisation; K562 cells, 10 uM, 30 min; active = over 0.2 and 3.5 SD of the protein, either way, in both replicates (recomputed)
[1] = compound: CN1CCN(CCOc2cc(OC3CCOCC3)c3c(Nc4c(Cl)ccc5c4OCO5)ncnc3c2)CC1 [saracatinib]
Method in brief: (§1)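 For each measurement, 10 μM compound was applied for 30 min to K562 cells at 2×10^6 cells/mL. Aliquots were heated for 3 min across 48°C-58°C, pooled, and extracted in PBS with 0.5% NP-40 at 4°C; the supernatant after 21,000xg for 90 min was soluble protein. This was quantified by TMTpro 16plex LC-MS/MS with channel sums equalised, and thermal stability was reported relative to control samples from duplicates, on a log2 fold-change scale.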

[2] = compound: CN1CCN(c2nc(C3=C(c4c[nH]c5ccccc45)C(=O)NC3=O)c3ccccc3n2)CC1 [sotrastaurin]
Method in brief: as §1

[3] = compound: CN1CC[C@H](c2c(O)cc(O)c3c(=O)cc(-c4ccccc4Cl)oc23)[C@H](O)C1 [alvocidib]
Method in brief: as §1

[4] = compound: CN1CCc2c(c3ccccc3n2Cc2ccc(C(=O)NO)cc2)C1 [Tubastatin A]
Method in brief: as §1

[5] = compound: CNC(=O)C1=CC=CC=C1NC2=NC(=NC=C2Cl)NC3=C(C=C(C=C3)N4CCOCC4)OC
Method in brief: as §1

[6] = compound: CNC(=O)c1ccc(Nc2ncc(C(F)(F)F)c(NCc3nccnc3N(C)S(C)(=O)=O)n2)cc1 [defactinib]
Method in brief: as §1

[7] = compound: CNCc1ccc(-c2[nH]c3cc(F)cc4c3c2CCNC4=O)cc1 [rucaparib]
Method in brief: as §1

[8] = compound: CNc1nc(-c2ccc3c(N)n[nH]c3c2)cc(N2C[C@@H](C(=O)NC3CCCCC3)CC[C@H]2C)n1
Method in brief: as §1

[9] = compound: COC(=O)N[C@@H](C)CNc1nccc(-c2cn(C(C)C)nc2-c2cc(Cl)cc(NS(C)(=O)=O)c2F)n1 [encorafenib]
Method in brief: as §1

[10] = compound: COC(=O)[C@H](CCSC)NC(=O)C1=C(C=C(C=C1)NC[C@H](CS)N)C2=CC=CC=C2
Method in brief: as §1

Target | log2 fold change [1] | log2 fold change [2] | log2 fold change [3] | log2 fold change [4] | log2 fold change [5] | log2 fold change [6] | log2 fold change [7] | log2 fold change [8] | log2 fold change [9] | log2 fold change [10]
GGA3 (UniProt Q9NZ52) | inactive: -0.039 | inactive: -0.022 | inactive: -0.1 | inactive: 0.077 | inactive: -0.079 | inactive: -0.061 | inactive: 0.012 | inactive: 0.051 | inactive: 0.049 | inactive: -0.012
GART (UniProt C9JZG2) | inactive: -0.208 | inactive: -0.012 | inactive: 0.121 | inactive: -0.173 | inactive: 0.034 | inactive: 0.046 | inactive: -0.47 | inactive: -0.064 | inactive: 0.048 | inactive: -0.016
GGNBP2 (UniProt Q9H3C7) | inactive: -0.147 | inactive: -0.075 | inactive: 0.031 | inactive: 0.08 | inactive: 0.059 | inactive: 0.112 | inactive: 0.109 | inactive: 0.186 | inactive: -0.037 | inactive: 0.078
GALM (UniProt Q96C23) | inactive: 0.018 | inactive: 0.005 | inactive: -0.058 | inactive: 0.036 | inactive: -0.033 | inactive: -0.076 | inactive: -0.002 | inactive: 0.05 | inactive: 0.002 | inactive: -0.067
GBA (UniProt P04062) | inactive: -0.023 | inactive: -0.071 | inactive: 0.008 | inactive: -0.023 | inactive: -0.029 | inactive: -0.014 | inactive: -0.082 | inactive: -0.043 | inactive: -0.048 | inactive: 0.031
GAK (UniProt O14976) | inactive: 1.06 | inactive: -0.066 |  | inactive: 0.011 | inactive: 1.11 | inactive: 0.658 | inactive: 0.237 | inactive: 0.402 | inactive: -0.17 | inactive: -0.266
FUT11 (UniProt Q495W5) | inactive: -0.003 | inactive: 0.071 | inactive: 0.171 | inactive: 0.055 | inactive: 0.06 | inactive: 0.157 |  | inactive: 0.03 |  | inactive: -0.061
GBA2 (UniProt Q9HCG7) | inactive: -0.046 | inactive: -0.026 |  | inactive: -0.03 | inactive: -0.012 | inactive: -0.07 | inactive: -0.266 | inactive: 0.11 | inactive: 0.084 | inactive: 0.071
GDE1 (UniProt Q9NZC3) | inactive: 0.029 | inactive: 0.051 |  | active: -0.316 | inactive: -0.003 | inactive: -0.017 | inactive: 0.009 | inactive: 0.01 | inactive: -0.017 | inactive: 0.024
GALNT1 (UniProt Q10472) | inactive: -0.026 | inactive: 0.03 |  | inactive: 0.064 | inactive: 0.039 | inactive: -0.046 | inactive: 0.008 | inactive: -0.047 | inactive: -0.037 | inactive: -0.005
GCC2 (UniProt Q8IWJ2) | inactive: -0.051 | inactive: -0.077 |  | inactive: 0.053 | inactive: 0.061 | inactive: 0.026 | inactive: 0.175 | inactive: 0.031 | inactive: 0.136 | inactive: -0.049
GATD1 (UniProt Q8NB37) | inactive: 0.077 | inactive: 0.057 |  | inactive: 0.06 | inactive: -0.079 | inactive: 0.001 | inactive: -0.004 | inactive: -0.022 | inactive: 0 | inactive: 0.011
FXYD5 (UniProt Q96DB9) | inactive: 0.062 | inactive: 0.034 | inactive: -0.489 |  |  | inactive: -0.023 |  | inactive: -0.039 |  | inactive: -0.148
GCSH (UniProt P23434) | inactive: -0.024 | inactive: 0.057 |  | inactive: -0.017 | inactive: 0.021 | inactive: -0.01 | inactive: -0.012 | inactive: -0.004 | inactive: -0.028 | inactive: -0.008
GALNT2 (UniProt Q10471) | inactive: -0.025 | inactive: 0.005 |  | inactive: 0.013 | inactive: 0.004 | inactive: 0.023 | inactive: -0.046 | inactive: -0.015 | inactive: 0.036 | inactive: -0.017
FRA10AC1 isoform 3 (UniProt Q70Z53) | inactive: 0.125 | inactive: 0.133 |  | inactive: -0.023 | inactive: -0.01 | inactive: 0 | inactive: -0.035 | inactive: -0.196 | inactive: -0.103 | inactive: -0.067
GALNT4 (UniProt Q8N4A0) | inactive: -0.088 | inactive: -0.029 |  | inactive: 0.046 | inactive: -0.063 | inactive: 0.016 | inactive: -0.079 | inactive: -0.138 | inactive: 0.04 | inactive: -0.013
FOXO3 (UniProt O43524) | inactive: -0.017 | inactive: 0.004 |  | inactive: 0.051 | inactive: -0.167 | inactive: -0.037 | inactive: -0.077 | inactive: -0.208 | inactive: 0.16 | inactive: 0.021
FPGS (UniProt Q05932) | inactive: -0.186 | inactive: 0.025 | inactive: -0.131 |  | inactive: 0.074 | inactive: -0.016 |  | inactive: -0.2 |  | inactive: 0.067
FTSJ3 (UniProt Q8IY81) | inactive: -0.437 | inactive: 0 | inactive: -0.074 |  | inactive: 0.012 |  |  | inactive: -0.259 |  | 
GATA2 (UniProt P23769) | inactive: 0.117 | inactive: -0.085 | inactive: 0.138 |  | inactive: -0.098 | inactive: 0.269 | inactive: 0.158 | inactive: -0.051 | inactive: -0.039 | inactive: 0.076
FOPNL (UniProt Q96NB1) | inactive: -0.054 | inactive: 0.23 | inactive: 0.075 | inactive: 0.216 | inactive: -0.039 | inactive: -0.069 |  | inactive: -0.115 |  | inactive: 0.067
GAPVD1 isoform 6 (UniProt Q14C86) | inactive: -0.04 | inactive: -0.158 |  | inactive: -0.009 | inactive: -0.007 | inactive: -0.07 | inactive: 0.103 | inactive: 0.032 | inactive: 0.125 | inactive: -0.043
FOXK1 (UniProt P85037) | inactive: 0.214 | active: -1.37 | active: -1.01 | inactive: -0.112 | inactive: 0.2 | inactive: -0.941 | inactive: -0.759 | inactive: 0.615 | inactive: 0.054 | inactive: -0.111
FOSL1 (UniProt P15407) | inactive: 0.094 | inactive: 0.003 | inactive: 0.036 |  | inactive: 0.096 | inactive: 0.057 | inactive: 0.037 | inactive: 0.03 | inactive: 0.024 | inactive: 0.003
GALNT12 (UniProt Q8IXK2) | inactive: -0.227 | inactive: -0.103 | inactive: -0.164 | inactive: 0.122 | inactive: -0.106 | inactive: -0.029 | inactive: -0.123 | inactive: -0.137 | inactive: 0.158 | inactive: 0.063
GALE (UniProt Q14376) | inactive: -0.039 | inactive: 0.114 | inactive: -0.061 | inactive: -0.007 | inactive: -0.011 | inactive: -0.017 | inactive: -0.114 | inactive: 0.02 | inactive: -0.002 | inactive: -0.004
FUCA1 (UniProt P04066) | inactive: 0.038 | inactive: -0.048 |  | inactive: -0.035 | inactive: -0.015 | inactive: -0.032 | inactive: -0.186 | inactive: 0.023 | inactive: 0 | inactive: 0.014
GCLM (UniProt P48507) | inactive: 0.012 | inactive: -0.055 |  | inactive: 0.061 | inactive: 0.155 | inactive: -0.151 | inactive: 0.033 | inactive: -0.045 | inactive: 0.048 | inactive: -0.042
GEMIN6 (UniProt Q8WXD5) | inactive: 0.063 | inactive: 0.002 |  | inactive: 0.072 | inactive: 0.013 | inactive: -0.061 | inactive: 0.069 | inactive: -0.028 | inactive: -0.04 | inactive: -0.112

Copied from above (five entries):
Target | log2 fold change [1] | log2 fold change [2] | log2 fold change [3] | log2 fold change [4] | log2 fold change [5] | log2 fold change [6] | log2 fold change [7] | log2 fold change [8] | log2 fold change [9] | log2 fold change [10]
FOXK1 (UniProt P85037) | inactive: 0.214 | active: -1.37 | active: -1.01 | inactive: -0.112 | inactive: 0.2 | inactive: -0.941 | inactive: -0.759 | inactive: 0.615 | inactive: 0.054 | inactive: -0.111
FOSL1 (UniProt P15407) | inactive: 0.094 | inactive: 0.003 | inactive: 0.036 |  | inactive: 0.096 | inactive: 0.057 | inactive: 0.037 | inactive: 0.03 | inactive: 0.024 | inactive: 0.003
GALNT12 (UniProt Q8IXK2) | inactive: -0.227 | inactive: -0.103 | inactive: -0.164 | inactive: 0.122 | inactive: -0.106 | inactive: -0.029 | inactive: -0.123 | inactive: -0.137 | inactive: 0.158 | inactive: 0.063
GALE (UniProt Q14376) | inactive: -0.039 | inactive: 0.114 | inactive: -0.061 | inactive: -0.007 | inactive: -0.011 | inactive: -0.017 | inactive: -0.114 | inactive: 0.02 | inactive: -0.002 | inactive: -0.004
FUCA1 (UniProt P04066) | inactive: 0.038 | inactive: -0.048 |  | inactive: -0.035 | inactive: -0.015 | inactive: -0.032 | inactive: -0.186 | inactive: 0.023 | inactive: 0 | inactive: 0.014
